Article doi:10.1101/373829
Results are given in words; binding and its absence hold for the method and conditions named. Binding seen in cells or lysates may run through a third protein. These calls come from enrichment with a bait or labelling near it, and not all partners need be listed.

The chains behind the UniProt entries cited, without tags or fusion partners.
UniProt P0A8T7, whole entry: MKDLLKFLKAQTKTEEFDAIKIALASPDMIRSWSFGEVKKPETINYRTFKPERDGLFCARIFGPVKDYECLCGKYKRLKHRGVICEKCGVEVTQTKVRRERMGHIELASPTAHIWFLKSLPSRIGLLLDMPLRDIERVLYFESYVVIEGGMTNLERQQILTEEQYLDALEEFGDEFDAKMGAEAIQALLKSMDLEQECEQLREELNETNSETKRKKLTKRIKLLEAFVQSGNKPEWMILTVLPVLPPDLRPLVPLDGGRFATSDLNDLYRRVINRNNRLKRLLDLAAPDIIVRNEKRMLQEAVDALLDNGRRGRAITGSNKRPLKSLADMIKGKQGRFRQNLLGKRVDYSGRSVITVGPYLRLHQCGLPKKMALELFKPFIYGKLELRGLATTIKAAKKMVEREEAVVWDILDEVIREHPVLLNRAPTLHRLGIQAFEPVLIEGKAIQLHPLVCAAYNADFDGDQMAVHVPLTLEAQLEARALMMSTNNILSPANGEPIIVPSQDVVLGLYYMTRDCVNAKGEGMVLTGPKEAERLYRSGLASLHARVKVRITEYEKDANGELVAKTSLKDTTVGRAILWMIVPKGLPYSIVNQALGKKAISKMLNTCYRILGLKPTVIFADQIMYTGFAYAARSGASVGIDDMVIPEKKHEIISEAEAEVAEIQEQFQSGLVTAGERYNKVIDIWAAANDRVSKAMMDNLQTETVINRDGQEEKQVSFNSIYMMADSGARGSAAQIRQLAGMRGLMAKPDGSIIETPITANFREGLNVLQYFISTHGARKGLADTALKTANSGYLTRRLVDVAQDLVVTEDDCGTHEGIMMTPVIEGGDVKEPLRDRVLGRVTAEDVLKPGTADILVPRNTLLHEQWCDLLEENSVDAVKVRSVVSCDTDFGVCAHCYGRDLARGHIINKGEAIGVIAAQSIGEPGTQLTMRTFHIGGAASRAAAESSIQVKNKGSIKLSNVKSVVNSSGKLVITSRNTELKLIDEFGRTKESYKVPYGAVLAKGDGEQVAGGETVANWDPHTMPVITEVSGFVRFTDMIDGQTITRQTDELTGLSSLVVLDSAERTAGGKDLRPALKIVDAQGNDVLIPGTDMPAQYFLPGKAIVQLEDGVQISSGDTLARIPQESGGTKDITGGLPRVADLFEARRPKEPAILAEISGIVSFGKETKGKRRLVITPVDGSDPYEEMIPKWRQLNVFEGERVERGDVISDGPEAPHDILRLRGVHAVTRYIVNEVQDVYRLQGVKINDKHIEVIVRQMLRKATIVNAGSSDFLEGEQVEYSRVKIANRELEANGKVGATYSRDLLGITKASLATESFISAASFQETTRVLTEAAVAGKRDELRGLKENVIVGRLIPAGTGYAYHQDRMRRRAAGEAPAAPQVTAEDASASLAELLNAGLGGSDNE

B1: MalT (protein, UniProt P06993 1-901)
chain: MLIPSKLSRPVRLDHTVVRERLLAKLSGANNFRLALITSPAGYGKTTLISQWAAGKNDIGWYSLDEGDNQQERFASYLIAAVQQATNGHCAICETMAQKRQYASLTSLFAQLFIELAEWHSPLYLVIDDYHLITNPVIHESMRFFIRHQPENLTLVVLSRNLPQLGIANLRVRDQLLEIGSQQLAFTHQEAKQFFDCRLSSPIEAAESSRICDDVSGWATALQLIALSARQNTHSAHKSARRLAGINASHLSDYLVDEVLDNVDLATRHFLLKSAILRSMNDALITRVTGEENGQMRLEEIERQGLFLQRMDDTGEWFCYHPLFGNFLRQRCQWELAAELPEIHRAAAESWMAQGFPSEAIHHALAAGDALMLRDILLNHAWSLFNHSELSLLEESLKALPWDSLLENPQLVLLQAWLMQSQHRYGEVNTLLARAEHEIKDIREDTMHAEFNALRAQVAINDGNPDEAERLAKLALEELPPGWFYSRIVATSVLGEVLHCKGELTRSLALMQQTEQMARQHDVWHYALWSLIQQSEILFAQGFLQTAWETQEKAFQLINEQHLEQLPMHEFLVRIRAQLLWAWARLDEAEASARSGIEVLSSYQPQQQLQCLAMLIQCSLARGDLDNARSQLNRLENLLGNGKYHSDWISNANKVRVIYWQMTGDKAAAANWLRHTAKPEFANNHFLQGQWRNIARAQILLGEFEPAEIVLEELNENARSLRLMSDLNRNLLLLNQLYWQAGRKSDAQRVLLDALKLANRTGFISHFVIEGEAMAQQLRQLIQLNTLPELEQHRAQRILREINQHHRHKFAHFDENFVERLLNHPEVPELIRTSPLTQREWQVLGLIYSGYSNEQIAGELEVAATTIKTHIRNLYQKLGVAHRQDAVQHAQQLLKMMGYGV
B2: ExuR (protein, UniProt P0ACL2 1-258)
chain: MEITEPRRLYQQLAADLKERIEQGVYLVGDKLPAERFIADEKNVSRTVVREAIIMLEVEGYVEVRKGSGIHVVSNQPRHQQAADNNMEFANYGPFELLQARQLIESNIAEFAATQVTKQDIMKLMAIQEQARGEQCFRDSEWDLQFHIQVALATQNSALAAIVEKMWTQRSHNPYWKKLHEHIDSRTVDNWCDDHDQILKALIRKDPHAAKLAMWQHLENTKIMLFNETSDDFEFNADRYLFAENPVVHLDTATSGSK

Target: His6-tagged RpoC (E. coli (endogenous in strain RL721)) (UniProt P0A8T7)
Experiment: affinity purification with mass spectrometry

| Binder | binding |
| --- | --- |
| B1 | binds |
| B2 | binds |
